# Test results: PubChem BioAssay AID485314 (National Center for Advancing Translational Sciences (NCATS), 2010)
# The campaign covered roughly 340,000 compounds. About 4,500 (1.3%) were called active. This list was built around the results that the source calls inconclusive (neither active nor inactive); the mix of calls is not that of the screen. Calls come from the whole dose curve; as a rule, active = well fitted inhibition curve with a large enough effect; inconclusive = small, poorly fitted or top-dose-only effect, or another doubt; inactive = no such curve, though single readings can be large or run the other way. Potencies of inconclusive entries are doubtful fits and often do not repeat.
# Target: DNA polymerase beta (Homo sapiens) (UniProt P06746)
# Test: qHTS Assay for Inhibitors of DNA Polymerase Beta
# Settings: Pol beta primer extension/strand displacement, fluorescence kinetic; activity change, negative = inhibition: at 114 µM (top of the series)
# How it was run: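 10 nM enzyme + cpd, 15 min RT; start with substrate 50 nM final; read 0 min and after 10 min RT. Corrected, normalized data; 4-parameter Hill curve fit.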
# % is set by controls: 0 for no effect and ±100 for the full control effect; potency is the fitted concentration of half-maximal effect.
SMILES,Potency,"activity change, negative = inhibition"
COCCOC(=O)C1=C(C)NC(=O)N(C(C)=O)C1c1ccc(Cl)cc1 (centres undefined),"inconclusive: 39.8 µM [inhibitor, single point]",–
COc1cccc(/C=N\NC(=O)c2ccc(Cn3cc(Br)c([N+](=O)[O-])n3)o2)c1O,active: 39.8 µM,–
COc1cc(/C=C(/C#N)c2nc3ccccc3[nH]2)ccc1OC(=O)c1ccco1,"inconclusive: 44.7 µM [inhibitor, partial curve]",–
CC(=O)Nc1ccc(N2C(=O)CC(Sc3nc(C)cc(C)n3)C2=O)cc1 (centres undefined),"inconclusive: 50.1 µM [inhibitor, partial curve]",–
COc1cccc2[nH]c3ccccc3c(=O)c12,inactive,–
Cc1cc(C=O)c(C)n1-c1ccc(Cl)c(C(=O)O)c1,active: 3.16 µM,–
Cc1nc2c(c(=O)n1Cc1ccccc1Cl)c1nc3ccccc3nc1n2Cc1ccco1,active: 20 µM,–
FC(F)(F)c1cccc(Cn2nnnc2-c2cccc(C(F)(F)F)c2)c1,"inconclusive: 25.1 µM [inhibitor, single point]",–
COC(=O)c1ccc(-c2noc(CN(C)CCC3CCCCO3)n2)cc1 (centres undefined),"inconclusive: 7.08 µM [inhibitor, full curve]",–
Nn1cnnc1N/N=C/c1ccc(Cl)c([N+](=O)[O-])c1,"inconclusive: 35.5 µM [inhibitor, partial curve]",–
O=C1C2C3C=CC(C3)C2C(=O)N1/N=C/c1ccc(-c2ccccc2[N+](=O)[O-])o1 (centres undefined),inactive,–
COc1cc(/C=N/NC(=O)c2ccc(CSc3nc4ccccc4[nH]3)cc2)ccc1O,"inconclusive: 12.6 µM [inhibitor, partial curve]",–
O=C(NCc1ccco1)c1cc(=O)c2ccccc2o1,inactive,–
COc1ccc2c(c1)c(=O)oc1c(C)c(OCc3ccc(C(=O)O)cc3)ccc12,"inconclusive: 89.1 µM [inhibitor, single point]",–
O=C(Nc1ccc(Br)cc1C(=O)O)c1ccc2c(c1)C(=O)N(Cc1ccccc1)C2=O,inactive,–
CCOc1cc(N2CCOCC2)c(OCC)cc1NC(=O)CN1C(=O)NC(C)(C2CC2)C1=O (centres undefined),"inconclusive: 89.1 µM [inhibitor, single point]",–
O=C(CSc1ccsc1[N+](=O)[O-])N1CCN(c2ccccn2)CC1,"inconclusive: 22.4 µM [inhibitor, full curve, poor fit]",–
CCOC(=O)C1=C(C)N(C)C(=O)NC1c1cccc(O)c1 (centres undefined),"inconclusive: 0.447 µM [inhibitor, full curve, poor fit]",–
Cc1ccc(C(=O)N2CCN(S(=O)(=O)c3ccccc3[N+](=O)[O-])CC2)o1,"inconclusive: 50.1 µM [inhibitor, partial curve, poor fit]",–
CCOC(=O)c1ccc(-n2c(CN3CCC(C(N)=O)CC3)nc3ccc([N+](=O)[O-])cc3c2=O)cc1,"inconclusive: 39.8 µM [inhibitor, single point]",–
CCOc1cccc(=O)c2c(C)n(-c3ccc(C(=O)O)cc3)c(C)c12,active: 22.4 µM,–
Cc1ccc(NCc2cccn2-c2nnc(N3CCC(C(=O)NC(C)C)CC3)s2)cc1,"inconclusive: 79.4 µM [inhibitor, single point]",–
Cc1ccc(S(=O)(=O)N2CCCc3cc(NS(=O)(=O)c4ccc(F)c(C)c4)ccc32)cc1,"inconclusive: 89.1 µM [inhibitor, single point]",–

SMILES,Potency,"activity change, negative = inhibition"
CN(CCO)c1c2c(nc3cc(-c4cccc(F)c4)nn13)CCCC2,"inconclusive: 0.891 µM [inhibitor, full curve]",–
COc1ccc(C(=O)n2cnc3ccccc32)cc1,inactive,–
Cc1ccc(C)n1-c1ccc(C(=O)/C=C/N(C)C)cc1,"inconclusive: 56.2 µM [inhibitor, partial curve]",–
O=C(O)c1ccc(OCc2ccc(C(=O)O)o2)cc1,"inconclusive: 39.8 µM [inhibitor, partial curve, poor fit]",–
Cc1ccc(C)c(NC(=O)c2ccc3c(c2)N(Cc2ccc(F)cc2)C(=O)CS3=O)c1 (centres undefined),inactive,–
CCC(CC)C(=O)NC1CC(=O)N(c2ccc3c(c2)OCCO3)C1 (centres undefined),inactive,–
Cc1oc2ccc(O)c(CN(C)Cc3ccccc3)c2c1C(=O)Nc1cccc(C(F)(F)F)c1,"inconclusive: 12.6 µM [inhibitor, full curve, poor fit]",–
C/C(=N/NC(=O)CNC(=O)/C=C/c1ccco1)c1ccc(Cl)cc1,active: 22.4 µM,–
O=C(O)COc1ccccc1/C=N/NC(=O)CSc1nc2ccccc2c(=O)n1-c1ccc(Cl)cc1,–,inconclusive: -121% [inhibitor]
COc1ccc(C(=O)c2cn(CC(=O)Nc3ccc4c(c3)OCCO4)c3ccc(OC)cc3c2=O)cc1,active: 8.91 µM,–
O=C(CSc1nc(-c2ccccc2)no1)N1CCN(c2ccccc2F)CC1,inactive,–
NS(=O)(=O)c1ccc(-c2ccc(/C=C3\C(=O)Nc4cc(Cl)ccc43)o2)cc1,"inconclusive: 39.8 µM [inhibitor, partial curve]",–
Cc1nc2nc(-c3ccc(Cl)cc3Cl)nn2c(C)c1CCC(=O)Nc1ccc(F)cc1,inactive,–
CCOc1ccc(C(=O)n2cc(C(=O)OC)c3ccccc32)cc1OCC,"inconclusive: 22.4 µM [inhibitor, single point]",–
CCC1CN(C(=O)N2CCC(C(=O)Nc3cc(C)ccc3C)CC2)c2ccccc2O1 (centres undefined),inactive,–
COc1ccc(N/N=C(/C#N)S(=O)(=O)C(C)(C)C)cc1,inactive,–
COc1ccc(/C=N/Nc2ncnc(Cl)c2N)cc1OC,"inconclusive: 70.8 µM [inhibitor, single point]",–
COc1ccc(C(CC(=O)Nc2cccc(C)c2C)N2Cc3ccccc3C2=O)cc1 (centres undefined),inactive,–
CC1CCCN(CC(=O)Nc2ccc(S(=O)(=O)N3CCCCCC3)cc2)C1 (centres undefined),"inconclusive: 1 µM [inhibitor, full curve, poor fit]",–
Cc1oc(CC(C)C)c(CN)c1C(=O)O,inactive,–
CCOC(=O)c1c(NC(=O)Cc2coc3cc(C)ccc23)sc2c1CCCC2,inactive,–
COc1ccc(-n2c(Cc3cccn3C)nnc2SCC(=O)NC2CCCC2)cc1,"inconclusive: 3.98 µM [inhibitor, single point]",–
CCc1nnc(NC(=O)C2CCCN(S(=O)(=O)c3ccc(OC)cc3)C2)s1 (centres undefined),"inconclusive: 5.01 µM [inhibitor, full curve]",–

# An excerpt from above in order of molecular weight, largest number first.
SMILES,Potency,"activity change, negative = inhibition"
CCOC(=O)c1ccc(-n2c(CN3CCC(C(N)=O)CC3)nc3ccc([N+](=O)[O-])cc3c2=O)cc1,"inconclusive: 39.8 µM [inhibitor, single point]",–
O=C1C2C3C=CC(C3)C2C(=O)N1/N=C/c1ccc(-c2ccccc2[N+](=O)[O-])o1 (centres undefined),inactive,–
CC(=O)Nc1ccc(N2C(=O)CC(Sc3nc(C)cc(C)n3)C2=O)cc1 (centres undefined),"inconclusive: 50.1 µM [inhibitor, partial curve]",–

# Following part.

SMILES,Potency,"activity change, negative = inhibition"
COc1c(/C=C2\SC(=Nc3ccccc3Cl)NC2=O)cccc1[N+](=O)[O-],"inconclusive: 100 µM [inhibitor, single point]",–
Cc1cc(C)c2[nH]c(=O)c(C(c3nnnn3Cc3ccc4c(c3)OCO4)N3CCCC3)cc2c1 (centres undefined),"inconclusive: 79.4 µM [inhibitor, single point]",–
COc1cccc(NC(=O)CSc2nc3ncc(Br)cc3[nH]2)c1,–,inconclusive: -68.4% [inhibitor]
Cc1cc(C)c(NC(=O)CCCN2C(=O)COc3ccc(C)cc32)c(C)c1,"inconclusive: 89.1 µM [inhibitor, single point]",–
N=C1/C(=C/c2ccco2)C(=O)N=C2SC(CC(=O)N3CCCC3)=NN12,–,inconclusive: -39.2% [inhibitor]
O=C(NCc1ccco1)C1CCN(c2nnc(-n3cccc3)s2)CC1,"inconclusive: 2.24 µM [inhibitor, partial curve, poor fit]",–
Cn1c(C(=O)NC2CCCCC2)cc2c(=O)n(C)c3ccccc3c21,"inconclusive: 22.4 µM [inhibitor, full curve, poor fit]",–
CC1=NOC(=O)/C1=C\c1ccc(-c2ccccc2Br)o1,active: 22.4 µM,–
O=C(/C=C/c1ccc(Cl)c([N+](=O)[O-])c1)Nc1ccc(N2CCCC2)c(Cl)c1,"inconclusive: 39.8 µM [inhibitor, single point]",–
Cn1c(SCC(=O)Nc2ccc(Br)cn2)nnc1C1CC1,"inconclusive: 20 µM [inhibitor, full curve]",–
O=C(CN1C(=O)/C(=C/c2ccccc2Cl)SC1=S)NC1C=CS(=O)(=O)C1 (centres undefined),"inconclusive: 1 µM [inhibitor, single point]",–
C=CCn1c(NS(=O)(=O)c2ccccc2)c(S(=O)(=O)c2ccc(C)cc2)c2nc3ccccc3nc21,"inconclusive: 8.91 µM [inhibitor, full curve]",–
O=C(CCn1ccc2cc(S(=O)(=O)N3CCCC3)ccc21)NCc1cccc(Br)c1,inactive,–
Cc1nc(SCC#N)c2c3c(sc2n1)CCC3,inactive,–
CC(=O)Oc1ccc(N(C(C)=O)S(=O)(=O)c2ccc3ccccc3c2)cc1,"inconclusive: 20 µM [inhibitor, full curve, poor fit]",–
O=C(O)c1ccc(-n2nnnc2SCc2ccccc2F)cc1,inactive,–
CN(C)S(=O)(=O)c1ccc2c(c1)nnn2CCNC(=O)Nc1ccc(Br)cc1,"inconclusive: 89.1 µM [inhibitor, single point]",–
COc1ccc(C(CC(=O)c2ccc(C)cc2)Nc2ccc([N+](=O)[O-])cc2)cc1 (centres undefined),"inconclusive: 89.1 µM [inhibitor, single point]",–
COc1cc([N+](=O)[O-])ccc1-c1ccc(/C=N\n2cnnc2)o1,"inconclusive: 7.08 µM [inhibitor, full curve]",–
CN(Cc1nccs1)C(=O)c1ccc2nc(Cc3ccccc3F)oc2c1,–,inconclusive: -31.1% [inhibitor]
COc1cccc(NC(=O)C2CCN(C(=O)N3CC(C)Oc4ccccc43)CC2)c1 (centres undefined),inactive,–
O=C(NCc1ccccc1Cl)c1ccc2c(O)c(S(=O)(=O)c3ccccc3)c(=O)[nH]c2c1,inactive,–
Cc1cccc(Cc2c(C)nc3nc(SCc4ccccc4C)nn3c2C)c1,inactive,–
